# Primary screen of a compound library

Sequences of proteins named here, by UniProt entry; tags and fusion partners are left off. Residues count along the entry.
UniProt A4I591, 1-473: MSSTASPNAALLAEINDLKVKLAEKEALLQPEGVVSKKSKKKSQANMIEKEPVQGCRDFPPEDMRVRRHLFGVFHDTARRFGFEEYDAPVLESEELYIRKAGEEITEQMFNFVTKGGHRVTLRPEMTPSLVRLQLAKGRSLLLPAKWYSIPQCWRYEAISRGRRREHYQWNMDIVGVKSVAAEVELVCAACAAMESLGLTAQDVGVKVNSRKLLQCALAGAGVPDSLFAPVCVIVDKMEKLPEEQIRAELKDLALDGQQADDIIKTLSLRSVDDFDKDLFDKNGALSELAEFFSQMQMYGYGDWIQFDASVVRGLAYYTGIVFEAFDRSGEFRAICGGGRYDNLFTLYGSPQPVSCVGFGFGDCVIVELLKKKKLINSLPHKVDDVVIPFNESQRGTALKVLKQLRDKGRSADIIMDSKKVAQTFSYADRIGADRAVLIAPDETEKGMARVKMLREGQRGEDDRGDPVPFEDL
UniProt P9WFT3, whole entry: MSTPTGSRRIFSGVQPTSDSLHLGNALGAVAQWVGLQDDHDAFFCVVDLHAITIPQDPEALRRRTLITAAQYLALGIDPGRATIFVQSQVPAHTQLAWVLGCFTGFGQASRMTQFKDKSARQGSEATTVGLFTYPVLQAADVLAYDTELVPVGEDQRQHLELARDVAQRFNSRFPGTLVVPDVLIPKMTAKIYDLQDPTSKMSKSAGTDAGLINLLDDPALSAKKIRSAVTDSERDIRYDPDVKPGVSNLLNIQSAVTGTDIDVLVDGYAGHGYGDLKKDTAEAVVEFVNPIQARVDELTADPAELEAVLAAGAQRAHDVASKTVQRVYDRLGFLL

Measurements from “University of Dundee, Small-Polar-MMV Screening Library” (2021), ChEMBL document CHEMBL3988442.

LiHisRS: 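Enzyme assay of histidyl-tRNA synthetase; the read-out is not stated. Target: Histidine-tRNA ligase, Leishmania infantum (UniProt A4I591). Concentration: 30 µM. Direction is inferred from retests: higher values go with stronger inhibition. The assay is labelled LdHisRS but filed under L. infantum. Of about 69,000 compounds tested this way, about 410 (0.6%) reached 50% or more in at least one test.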
MtTrpRS: 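Enzyme assay of tryptophanyl-tRNA synthetase; the read-out is not stated. Target: Tryptophan-tRNA ligase, Mycobacterium tuberculosis (UniProt P9WFT3). Tested at 10 µM. Direction is not recorded; retested compounds ran higher, which suggests that high means inhibition. Size under these conditions: about 65,000 compounds, about 64 of them at 50% or above in at least one test.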

The filed quantity is “Percent Effect” (%).
How 0% and 100% were set is not recorded. Most values in the screen are low, and negative values occur.
The compounds are a random part of those screened.

Result for Cc1nnn2c1COCC(CNCc1nccs1)C2 (stereo not given) was LiHisRS: 8%; MtTrpRS: -3.352%. Result for CCOC(CC)C(=O)NCc1cccc(N2CCCCC2=O)c1 (stereo not given) was LiHisRS: 1.653%; MtTrpRS: 2.848%. O=C(c1cc2c(s1)CCCC2)N1CCCC1Cn1cccn1 (stereo not given) read LiHisRS: 6.25%; MtTrpRS: -8.291%. With CCOC(=O)N1CCN(C(=O)Cn2ccc3ncccc3c2=O)CC1 the screen gave LiHisRS: 9.804%; MtTrpRS: 1.234%. O=C(C[C@@H]1COC[C@H]2CN(Cc3cccnc3)C[C@@H]12)N1CCCC1 gave LiHisRS: 18.09%; MtTrpRS: 3.004%. With Cc1cc(C)n(CC2CCCN2C(=O)c2ccc3ccccc3n2)n1 (stereo not given) the screen gave LiHisRS: 8.772%; MtTrpRS: -0.9938%. O=S(=O)(c1ccc(Cl)s1)N1CCCn2ncnc21 read LiHisRS: 20.21%; MtTrpRS: -1.29%. For CS(=O)(=O)N1CCN(C(=O)c2cnn3c2OCCC3)CC1 the result was LiHisRS: 6.742%; MtTrpRS: 5.869%.

CC(C)C1CN(c2ncc(F)cn2)CCC(=O)N1Cc1ccc(F)cc1 (stereo not given) read LiHisRS: 25.96%; MtTrpRS: 2.275%. Result for COC1COC2(CCN(C(=O)c3cnc(C)cn3)CC2)C1 (stereo not given) was LiHisRS: 2%; MtTrpRS: -4.209%. CN(Cc1ccsc1)C(=O)c1ccc(S(=O)(=O)NC(C)(C)C)cc1 gave LiHisRS: 13.46%; MtTrpRS: -4.061%. Result for FC(F)(F)c1cccc(C2(CNCc3cc[nH]c3)CCOCC2)c1 was LiHisRS: 12.68%; MtTrpRS: -3.935%. CC(C)n1cnc2c1C(C(=O)NCCC#N)N(Cc1ccccc1)CC2 (stereo not given) gave LiHisRS: 11.32%; MtTrpRS: 2.833%. With O=c1cc(N2CCCCC2)cnn1CCCn1cccn1 the screen gave LiHisRS: 28.21%; MtTrpRS: 8.318%. For CC(C)N1CCOC(CC(=O)N2CC(c3ccncc3)C2)C1 (stereo not given) the result was LiHisRS: -1.399%; MtTrpRS: -5.325%. Result for COc1cc(C(=O)NC(C)(C)CN2CCN(C)CC2)c2ccccc2n1 was LiHisRS: 7.042%; MtTrpRS: -5.145%.

With Cc1cccc(C(C(=O)NCCc2nc(C)cc(=O)[nH]2)N(C)C)c1 (stereo not given) the screen gave LiHisRS: 11.29%; MtTrpRS: 1.481%. CCC[C@H]1CN(S(=O)(=O)c2ccc(-c3c(C)noc3C)s2)C[C@@H]1N read LiHisRS: 23.94%; MtTrpRS: 0.5045%. With CCc1nc(CC(=O)N2CCCCC2Cn2cccn2)cs1 (stereo not given) the screen gave LiHisRS: 6.897%; MtTrpRS: 27%. Result for Cc1ccncc1C(=O)N1C[C@@H]2CN(c3ncccn3)C[C@]2(C(=O)O)C1 was LiHisRS: 6.557%; MtTrpRS: -2.563%. With Cc1nn(C)c2c(N3CCSCC3)nc(C3CC3)nc12 the screen gave LiHisRS: 8.602%; MtTrpRS: -0.75%. Cc1cc2nc(SCC(=O)N3CCCC3)n(C)c(=O)c2[nH]1 read LiHisRS: 5.263%; MtTrpRS: 2.658%.

The last 2 entries again:

{"smiles": "Cc1nn(C)c2c(N3CCSCC3)nc(C3CC3)nc12", "LiHisRS": 8.602, "MtTrpRS": -0.75}
{"smiles": "Cc1cc2nc(SCC(=O)N3CCCC3)n(C)c(=O)c2[nH]1", "LiHisRS": 5.263, "MtTrpRS": 2.658}